The subject of this assay is B6C3F1 mice, B16 melanoma ip, median survival T/C. The experiment in a line: NCI In Vivo Anticancer Drug Screen. Data for tumor model B16 Melanoma (intraperitoneal) in B6C3F1 mice. Conditions: T/C endpoint: median survival time, higher T/C = longer survival. A digest of the protocol:
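Mice bearing transplanted tumor were dosed with compound or vehicle, and survival was recorded. Activity is expressed as the treated-group measurement (T) divided by the vehicle control measurement (C).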

Setting [1] is: dose: 0.5 mg/kg/injection, schedule: Q01DX009 (ip), vehicle: saline.
Where [2] appears, read: dose: 2.0 mg/kg/injection, schedule: Q01DX009 (ip), vehicle: Klucel (hydroxypropylcellulose) (HPC).
Setting [3] is: dose: 400.0 mg/kg/injection, schedule: Q01DX009 (ip), vehicle: saline with Tween-80.
Setting [4] is: dose: 200.0 mg/kg/injection, schedule: Q01DX009 (ip), vehicle: saline with Tween-80.
Setting [5] is: dose: 50.0 mg/kg/injection, schedule: Q01DX009 (ip), vehicle: saline.
The mark [6] stands for this setting: dose: 200.0 mg/kg/injection, schedule: Q01DX009 (ip), vehicle: saline.
The mark [7] stands for this setting: dose: 400.0 mg/kg/injection, schedule: Q01DX009 (ip), vehicle: saline.

The list is a part of this screen's results and no random one: it gathers tests that were run many times, whatever their T/C, doses with no T/C, and many T/C values between a quarter and a half above the control. Further doses and runs are listed elsewhere. T/C is the treated group as % of the vehicle group. Some doses have a count of surviving animals in place of a T/C: the source files T/C as zero there, which appears to mark a toxic dose or a test without result, not a measured value. Some doses without a T/C left all or most animals alive at the check, yet need not have been tolerated: survival well below the control is almost never listed, so the zero probably covers shortened survival too. Counts of survivors are from the toxicity check (mostly the fifth day) where no day follows; animals may have died later. Schedules are NCI's codes, taken here to give the interval after Q, in days (D) or hours (H), and the number of doses after X. Signs of the kind (2×) stand for listed records that agree. For survival time, this PubChem deposit counts one and a half times the control or more as active, and values a quarter to a half above the control carry no call in these data; other NCI protocols may use other cut-offs. Some doses were run more than once; their values stand side by side, smallest first. Some T/C values carry the count of animals alive at the toxicity check (mostly the fifth day); where none is given, no animal had died by that day.

On to `CO[C@@]12[C@H](COC(N)=O)C3=C(C(=O)C(C)=C(N)C3=O)N1C[C@@H]1N[C@@H]12`, for which the T/C (dose: 0.25 mg/kg/injection, schedule: Q01DX009 (ip), vehicle: saline with Tween-80) is 130 % of control; the T/C (dose: 0.25 mg/kg/injection, schedule: Q01DX009 (ip), vehicle: saline) is 141 % of control; the T/C (dose: 0.25 mg/kg/injection, schedule: Q01DX009 (ip), vehicle: water) is 136 % of control; the T/C under setting [1] was 130 % of control; the T/C (dose: 0.5 mg/kg/injection, schedule: Q01DX009 (ip), vehicle: water) was 139 % of control; the T/C (dose: 0.5 mg/kg/injection, schedule: Q04DX003 (ip), vehicle: clinical formulation, evaluated on day 45) was 149 % of control. Also, the T/C is, setting by setting: (dose: 0.5 mg/kg/injection, schedule: Q04DX003 (ip), vehicle: clinical formulation, evaluated on day 60) 126 % of control; (dose: 1.0 mg/kg/injection, schedule: Q01DX001 (ip), vehicle: clinical formulation) 136 % of control; (dose: 1.0 mg/kg/injection, schedule: Q01DX009 (ip), vehicle: saline) 139 % of control; (dose: 1.5 mg/kg/injection, schedule: Q04DX003 (ip), vehicle: clinical formulation) 139 % of control; (dose: 2.0 mg/kg/injection, schedule: Q01DX001 (ip), vehicle: saline) 135 % of control; under setting [2], 142 % of control. Further, the T/C (dose: 8.0 mg/kg/injection, schedule: Q01DX001 (iv), vehicle: saline) was 131 % of control. Moreover, the survivor count is, setting by setting: (dose: 1.0 mg/kg/injection, schedule: Q01DX005 (iv), vehicle: saline) 10 of 10; (dose: 2.0 mg/kg/injection, schedule: Q01DX005 (iv), vehicle: saline) 10 of 10; (dose: 2.0 mg/kg/injection, schedule: Q01DX009 (ip), vehicle: saline with Tween-80) 10 of 10; (dose: 2.0 mg/kg/injection, schedule: Q01DX009 (ip), vehicle: saline) 10 of 10; (dose: 2.0 mg/kg/injection, schedule: Q01DX009 (ip), vehicle: water) 10 of 10; (dose: 4.0 mg/kg/injection, schedule: Q01DX009 (ip), vehicle: saline with Tween-80) 10 of 10. For the same compound, the survivor count reads like this: (dose: 4.0 mg/kg/injection, schedule: Q01DX009 (ip), vehicle: saline) 10 of 10; (dose: 4.0 mg/kg/injection, schedule: Q04DX003 (ip), vehicle: clinical formulation) 10 of 10; (dose: 5.0 mg/kg/injection, schedule: Q01DX009 (oral), vehicle: water) 10 of 10; (dose: 6.0 mg/kg/injection, schedule: Q04DX003 (ip), vehicle: clinical formulation) 10 of 10; (dose: 8.0 mg/kg/injection, schedule: Q04DX003 (ip), vehicle: clinical formulation) 10 of 10 (2×); (dose: 10.0 mg/kg/injection, schedule: Q01DX009 (oral), vehicle: water) 10 of 10. The survivor count is, setting by setting: (dose: 12.0 mg/kg/injection, schedule: Q04DX003 (ip), vehicle: clinical formulation) 10 of 10; (dose: 20.0 mg/kg/injection, schedule: Q01DX009 (oral), vehicle: water) 10 of 10.

For the compound `O=[N+]([O-])c1ccc(-n2[nH]nnc2=S)cc1`, under setting [3], the survivor count is 6 of 10.

Turning to `O=C(O)C1CSCN1` (stereo not drawn), the survivor count (dose: 3.12 mg/kg/injection, schedule: Q01DX009 (ip), vehicle: saline) is 10 of 10.

Take `COc1cc(C2c3cc4c(cc3C(OC3CCCCO3)C3COC(=O)C23)OCO4)cc(OC)c1OC` (stereo not drawn): the survivor count is given as 10 of 10 (dose: 6.25 mg/kg/injection, schedule: Q01DX009 (ip), vehicle: Klucel (hydroxypropylcellulose) (HPC)); 7 of 10 (dose: 12.5 mg/kg/injection, schedule: Q01DX009 (ip), vehicle: Klucel (hydroxypropylcellulose) (HPC)); 4 of 10 (dose: 25.0 mg/kg/injection, schedule: Q01DX009 (ip), vehicle: Klucel (hydroxypropylcellulose) (HPC)).

Take `CC(C)(C)OC(=O)NC(Cc1ccc(OCc2ccccc2)cc1)C(=O)ON1C(=O)CCC1=O` (stereo not drawn): the survivor count by setting is: (dose: 100.0 mg/kg/injection, schedule: Q01DX009 (ip), vehicle: Klucel (hydroxypropylcellulose) (HPC)) 10 of 10; (dose: 200.0 mg/kg/injection, schedule: Q01DX009 (ip), vehicle: Klucel (hydroxypropylcellulose) (HPC)) 10 of 10; (dose: 400.0 mg/kg/injection, schedule: Q01DX009 (ip), vehicle: Klucel (hydroxypropylcellulose) (HPC)) 3 of 10.

For `COc1ccc(OC)c(/C=C/c2ccnc3ccccc23)c1`, the T/C was 125 % of control [8 of 10 alive] under setting [4] and 132 % of control (dose: 400.0 mg/kg/injection, schedule: Q01DX009 (ip), vehicle: saline sonified). The survivor count is, setting by setting: under setting [3], 4 of 10; (dose: 800.0 mg/kg/injection, schedule: Q01DX009 (ip), vehicle: saline with Tween-80) 3 of 10.

On to `COc1cccc2c1C(=O)c1c(O)c3c(c(O)c1C2=O)C[C@@](O)(/C(CO)=N/NC(=O)c1ccc(Cl)c(Cl)c1)C[C@@H]3OC1CC(N)C(O)C(C)O1` (stereo partly drawn), for which the T/C under setting [1] was 136 % of control.

For the compound `OC(CCl)CN1CC[N+]2(CC1)CC[N+]1(CCN(CC(O)CCl)CC1)CC2` (stereo not drawn), the survivor count was 3 of 10 under setting [5]; 0 of 10 (dose: 100.0 mg/kg/injection, schedule: Q01DX009 (ip), vehicle: saline); 0 of 10 under setting [6]; 0 of 10 under setting [7].

On to `Cc1ccc2c(c1)Sc1ccc(N=NN(C)C)cc1N2C`, for which the survivor count (dose: 100.0 mg/kg/injection, schedule: Q01DX009 (ip), vehicle: other) was 6 of 10.

In the case of `COC(=O)C12OCC34C(CC5C(C)C6=CC(=O)OC6=CC5(C)C3C(O)C1O)OC(=O)C(O)C24` (stereo not drawn), the T/C (dose: 0.13 mg/kg/injection, schedule: Q01DX009 (ip), vehicle: Klucel (hydroxypropylcellulose) (HPC)) is 149 % of control; the T/C (dose: 0.25 mg/kg/injection, schedule: Q01DX009 (ip), vehicle: Klucel (hydroxypropylcellulose) (HPC)) was 145 % of control; the T/C (dose: 1.0 mg/kg/injection, schedule: Q01DX009 (ip), vehicle: Klucel (hydroxypropylcellulose) (HPC)) was 149 % of control [9 of 10 alive]; the T/C (dose: 300.0 micrograms/kg/injection, schedule: Q01DX009 (ip), vehicle: Klucel (hydroxypropylcellulose) (HPC)) is 133 % of control; the T/C (dose: 500.0 micrograms/kg/injection, schedule: Q01DX009 (ip), vehicle: Klucel (hydroxypropylcellulose) (HPC)) was 149 % of control. The survivor count under setting [2] is 7 of 10.

For `CC1=CC2c3cccc4[nH]cc(c34)CC2N(C)C1` (stereo not drawn), under “dose: 40.0 mg/kg/injection, schedule: Q01DX009 (ip), vehicle: suspension in saline”, the survivor count is listed as 2 of 10.

As for `N=c1c(C(=O)OCc2ccccc2)ncc(CCl)n1O`, the survivor count by setting is: under setting [4], 10 of 10; under setting [3], 9 of 10.

In the case of `CN(CO)c1nc(N(C)CO)nc(N(C)CO)n1`, the T/C runs as follows: (dose: 25.0 mg/kg/injection, schedule: Q01DX009 (ip), vehicle: saline) 131 % of control; under setting [5], 134 and 139 % of control. Besides, the survivor count was 10 of 10 (2×) under setting [6] and 5 of 10 under setting [7].

Values taken from PubChem BioAssay AID200 (DTP/NCI, 2004).
